In article PMC9020716:
Results are given in words; binding and its absence hold for the method and conditions named. In cells and extracts the contact can be indirect. Here binding means that the protein was enriched with, or labelled near, the bait; the list need not be complete. Tags and fused reporters may be left off the sequences shown.

T1: GFP:TurboID:PLK-1 (C. elegans) (UniProt P34331)
T1 sequence: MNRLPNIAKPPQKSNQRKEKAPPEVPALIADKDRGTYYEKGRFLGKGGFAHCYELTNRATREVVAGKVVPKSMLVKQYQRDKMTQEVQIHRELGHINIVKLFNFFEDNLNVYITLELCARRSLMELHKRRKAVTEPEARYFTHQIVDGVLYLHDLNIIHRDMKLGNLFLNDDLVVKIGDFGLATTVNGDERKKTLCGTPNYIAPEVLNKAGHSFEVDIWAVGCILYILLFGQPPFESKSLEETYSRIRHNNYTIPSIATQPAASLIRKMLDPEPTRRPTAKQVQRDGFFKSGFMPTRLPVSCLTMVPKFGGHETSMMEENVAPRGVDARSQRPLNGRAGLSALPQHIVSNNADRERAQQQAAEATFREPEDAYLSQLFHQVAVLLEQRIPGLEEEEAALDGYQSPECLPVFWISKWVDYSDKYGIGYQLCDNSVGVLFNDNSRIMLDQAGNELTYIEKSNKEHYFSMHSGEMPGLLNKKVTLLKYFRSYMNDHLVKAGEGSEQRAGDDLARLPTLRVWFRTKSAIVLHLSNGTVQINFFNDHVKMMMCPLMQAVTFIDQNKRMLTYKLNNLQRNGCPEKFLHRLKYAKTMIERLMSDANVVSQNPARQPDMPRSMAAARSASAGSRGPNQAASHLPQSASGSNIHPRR

T2: GFP:TurboID:SPD-5 (C. elegans) (UniProt P91349)
T2 sequence: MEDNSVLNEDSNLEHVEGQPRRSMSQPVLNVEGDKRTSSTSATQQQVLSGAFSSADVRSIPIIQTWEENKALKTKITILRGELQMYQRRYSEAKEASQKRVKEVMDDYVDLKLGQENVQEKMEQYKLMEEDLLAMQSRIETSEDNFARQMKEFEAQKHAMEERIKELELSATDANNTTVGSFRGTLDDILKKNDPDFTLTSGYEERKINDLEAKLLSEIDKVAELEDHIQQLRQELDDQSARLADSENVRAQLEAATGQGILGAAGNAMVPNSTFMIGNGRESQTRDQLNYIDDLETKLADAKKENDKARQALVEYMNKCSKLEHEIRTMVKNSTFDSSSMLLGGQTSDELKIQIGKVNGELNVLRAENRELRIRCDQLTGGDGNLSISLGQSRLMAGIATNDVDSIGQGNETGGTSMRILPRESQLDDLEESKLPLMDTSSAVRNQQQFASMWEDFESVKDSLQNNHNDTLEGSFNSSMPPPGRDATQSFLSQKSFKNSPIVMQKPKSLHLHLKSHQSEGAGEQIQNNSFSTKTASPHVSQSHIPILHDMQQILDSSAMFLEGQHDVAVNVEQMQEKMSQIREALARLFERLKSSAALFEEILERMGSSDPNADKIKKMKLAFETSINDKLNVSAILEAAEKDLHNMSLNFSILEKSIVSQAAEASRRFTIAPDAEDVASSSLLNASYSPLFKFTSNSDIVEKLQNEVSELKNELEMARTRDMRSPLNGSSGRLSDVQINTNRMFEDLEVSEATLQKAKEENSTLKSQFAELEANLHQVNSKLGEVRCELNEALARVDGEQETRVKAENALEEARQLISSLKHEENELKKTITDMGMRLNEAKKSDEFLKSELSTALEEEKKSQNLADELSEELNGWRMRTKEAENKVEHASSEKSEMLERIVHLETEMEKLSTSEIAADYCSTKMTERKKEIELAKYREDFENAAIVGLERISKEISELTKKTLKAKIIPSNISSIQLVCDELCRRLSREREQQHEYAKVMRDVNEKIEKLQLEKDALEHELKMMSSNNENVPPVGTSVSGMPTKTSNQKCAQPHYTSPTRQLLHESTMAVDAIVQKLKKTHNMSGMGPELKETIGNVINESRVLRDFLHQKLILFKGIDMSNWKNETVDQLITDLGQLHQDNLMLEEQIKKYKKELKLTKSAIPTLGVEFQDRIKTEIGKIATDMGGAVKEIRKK

T3: Posm-6-driven TurboID:GFP:SPD-5 (C. elegans) (UniProt P91349)
T3 sequence: T2 sequence

B1: RSA-2 (protein, UniProt G5EFV3 1-947)
chain: MSKIPVFKGSFKSWLAKNDEKPAKSVLLEPKYRDHHEKIRNKENMEEGEKPVFVSMANPQPTREDYERYDEDRRLKDKARDLRIARRRNSATPEASPSSDQYFTPEPADDEFVTPSTSKKSQKPRSSDATPVSSKPPRYLPRTPLSEQYTSCLSRKMEENFSRMQELMISGHSPHEARQQTIQESSEQLEPRAKVTRSSSQPPPIDTLKPRVPRIESPLVKKTTETPIRRTSYVDTLVATHQIQLQYSDRVVVGVERQMTKLESIKNLAAANRSPIIAEEAKKRRNEAEAVRKLIEVETQNAKKRAVIQELKDRIDKLTQAQLAIHQLVSSQPFSGDPYNQRLLRSIDNWMALPFREFDIQTAREMLELARKMKITIDHFRNVATLHRNSKSLNRSLNTSRKSIAVKINPSSQLNQQSSSDAAPPPSMREASTQMTSRLAESAMTQTSPRRIGVEPLDLSQLLEKHNSSSQTTPPVVEPVLAEVSAEPQRPPVTLSMTAPVSTIAEFDSMLNSISLHNESLETVAEPFSRLKTDISFPSTVEETTPRSGRVSLDSESARRLSAGLSHYLEQVKKERESMEAQESESESMELEIPVVSEVSVTTESENLEEVVSEHSDSKSPETLVASDNGEDSSGGSEDPNATQFEHEIEEHKEPEKLGLIIDPEDEQDETKRFVNHDEFEQSLEEELEPRGNNDSADDSGFLLDNSPAPRLKSIFDNLPPAAASAAVTDTPRVPAEADETTFAGMDMEEYCQREFLKEISPIMVQKAIELQDELRGVDWLTAQDVWQPPSFKDVQMEFDDNFEYFDSFSILIWSAVVDLINKNYLKFGRKMTENEEIAFEAEALKMLQTEHGPESRKSEWCTDVKMSKKLEGMMPMELDYRYDVRRGLPDAEKQKYQWQQVQMTVIAARYANKNLINEANEVYATEKEKLGQMVLESEIDATVTDV

What was measured:
[1] = biological target: T1, GFP:TurboID:PLK-1 (C. elegans); assay: proximity labelling; direct TurboID: GFP:TurboID fusion of the bait expressed as a transgene in mixed-stage C. elegans embryos, no supplemental biotin; insoluble (cytoskeletal) fraction resolubilised under denaturing conditions, streptavidin pull-down, LC-MS/MS; three replicates against the GFP:TurboID control; Log2 enrichment >1, p-value <0.05
[2] = biological target: T2, GFP:TurboID:SPD-5 (C. elegans); assay: as above
[3] = biological target: T3, Posm-6-driven TurboID:GFP:SPD-5 (C. elegans); assay: proximity labelling; direct TurboID in ciliated neurons: TurboID:GFP:SPD-5 under the osm-6 promoter against the TurboID:GFP control; L1 larvae, whole cell extracts, streptavidin pull-down, LC-MS/MS; Log2 enrichment >1, p-value <0.05

| Molecule | binding [1] | binding [2] | binding [3] |
| --- | --- | --- | --- |
| PCMD-1 | binds | binds | binds |
| ZK809.5 | binds | – | binds |
| B1 | – | binds | binds |
